Data: PubChem BioAssay AID1259415 (National Center for Advancing Translational Sciences (NCATS), 2018)
The campaign covered roughly 410,000 compounds. About 18,000 (4.4%) were called active. Inconclusive means that the source gave no clear call. Such entries were picked first, then a sample of the others. No stated cut-off is given here; in the data, active means activity change below about -60%; inconclusive means no clear call, values can overlap the other calls; inactive means above about -39%.
On the % scale 0 is the no-effect control and ±100 the full control effect.

Experiment: qHTS Assay for inhibitors of the human cytomegalovirus (HCMV)
Conditions: HFF cells, HCMV-luciferase reporter, 72 h; at 57.5 µM; stronger effect = lower value
Outline: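 Two-dose cell screen: HFF monolayers treated with compounds and infected with luciferase-expressing HCMV at 1 PFU/cell, 72 h at 37C, then lysed for luciferase measurement.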
For `CCN(CC)S(=O)(=O)c1ccc2c(c1)c(=O)c(C(=O)NCc1ccccc1OC)cn2C`, the activity change, negative = inhibition was inconclusive: -57.5%. In the case of `Cc1ccc(C(=O)N2CCc3cc(CNC(=O)c4ccnn4C)ccc32)cc1`, the activity change, negative = inhibition is reported as active: -70.2%. With `Cc1ccccc1CN1Cc2cnnn2-c2ccccc2C1C#N` (configuration not stated) the activity change, negative = inhibition was active: -98.5%. For `CC(=O)Nc1sc(C)c(C)c1C(=O)OCC(=O)Nc1cc(S(=O)(=O)N2CCCCC2)ccc1Cl`, the activity change, negative = inhibition was inconclusive: -41%. For `COC(=O)C1=C(C)NC2=C(C(=O)CCC2)C1c1cn(Cc2ccc(Cl)cc2Cl)nc1-c1ccccc1` (configuration not stated), the activity change, negative = inhibition was active: -60.7%. In the case of `CN(C)C1=NCCN1CC1CCCCCC1`, the activity change, negative = inhibition is reported as inactive: 47.1%. For `CN(C)c1ccc(CNC(=O)CCn2c(=O)c3cccn3c3ccc(F)cc32)cc1`, the activity change, negative = inhibition was inconclusive: -42.2%. In the case of `CC1Cc2ccccc2N1C(=O)CSc1nc2c(c(=O)n(C)c(=O)n2C)n1Cc1ccc(F)cc1` (configuration not stated), the activity change, negative = inhibition is reported as active: -106%. In the case of `S=C(NCc1ccc(Cl)c(Cl)c1)Nc1ccc2c(c1)OCO2`, the activity change, negative = inhibition is reported as inactive: -29.4%. For `Cc1ccc(N2CC(C(=O)N3CCC4(CC3)CC(=O)c3ccccc3O4)CC2=O)cc1` (configuration not stated), the activity change, negative = inhibition was inconclusive: -45.6%. With `Cc1ccc2[nH]c(C(=O)NN=C3CCCCC3)c(-c3ccccc3)c2c1` the activity change, negative = inhibition was inconclusive: -53.5%. In the case of `O=C(O)CCc1ccc(-c2ccc(Br)cc2)n1NC(=O)c1ccc([N+](=O)[O-])cc1`, the activity change, negative = inhibition is reported as inconclusive: 0%. With `COc1ccc(N(C(=O)Cn2nnc3ccccc32)C2(C(=O)NC3CCCC3)CCCCC2)cc1` the activity change, negative = inhibition was inconclusive: -46.2%. With `Cc1[nH]c2ccccc2c1C(=O)CSC(=S)N1CCN(C)CC1` the activity change, negative = inhibition was active: -62.1%. In the case of `CCOc1ccc(-n2c(Cc3ccccc3)nnc2SCc2nc(-c3cccs3)no2)cc1`, the activity change, negative = inhibition is reported as inactive: -7.01%. For `CCC(c1nnnn1Cc1ccco1)N1CCC(C(N)=O)CC1` (configuration not stated), the activity change, negative = inhibition was inactive: 17.9%. In the case of `COc1cccc(NC(=O)c2sc3nc(C)c(C(=O)Nc4ccc(C)cc4C)c(-c4cccs4)c3c2N)c1`, the activity change, negative = inhibition is reported as inconclusive: -46.7%. For `COc1cccc(-c2nc(NC(C)(C)C)c3ccccc3n2)c1O`, the activity change, negative = inhibition was inactive: 10.7%. In the case of `CCOc1ccc(NC(=O)c2oc(=O)c3ccccc3c2-c2ccc(C)cc2)cc1`, the activity change, negative = inhibition is reported as inactive: 8.65%. With `Cc1c(/C=N/NC(N)=O)c2ccccn2c1C(=O)c1ccncc1` the activity change, negative = inhibition was inactive: -14.1%. With `Cc1ccc(-c2nc(CSCC(=O)N3CCN(c4ccccn4)CC3)c(C)o2)cc1` the activity change, negative = inhibition was inconclusive: -53.9%. With `C=CC[n+]1c(-c2ccc(Cl)cc2Cl)csc1Nc1c(C)n(C)n(-c2ccccc2)c1=O` the activity change, negative = inhibition was active: -87.5%. In the case of `CCOC(=O)NC1(C(F)(F)F)NC(=O)N(c2cccc(C(F)(F)F)c2)C1=O` (configuration not stated), the activity change, negative = inhibition is reported as inconclusive: -42.5%. For `CN(CC(=O)Nc1ccc(F)c(F)c1F)C(=O)CN1C(=O)C2CCCCC2C1=O` (configuration not stated), the activity change, negative = inhibition was inconclusive: -55.4%. In the case of `CCCCOc1ccc(-c2n[nH]c(=S)n2Cc2ccccc2)cc1`, the activity change, negative = inhibition is reported as inconclusive: -53.6%. In the case of `CCCc1ccccc1OCCNC(C)=O`, the activity change, negative = inhibition is reported as inactive: 32.4%. With `NS(=O)(=O)c1ccc(NC(=O)COC(=O)c2cnc(Cl)c(Cl)c2)cc1` the activity change, negative = inhibition was inconclusive: -43.8%. With `COc1ccc(Cl)cc1NC(=O)CN(C)C(=O)c1ccc(N2CCCCC2)c([N+](=O)[O-])c1` the activity change, negative = inhibition was inconclusive: -56.4%. With `C[C@H](O)[C@@H]1CN2CCc3c([nH]c4ccc(-c5ccc6c(c5)OCO6)cc34)[C@@H]2C[C@@H]1N(C)C(=O)Nc1cc(Cl)cc(Cl)c1` the activity change, negative = inhibition was inconclusive: -46.5%. With `COc1ccccc1CNC(=O)CCc1c(C)nn(-c2ccc(N3CCCC3)nn2)c1C` the activity change, negative = inhibition was inconclusive: -52.3%. With `Cc1ccc(C)n1-c1ccc(C(=O)NCc2ccncc2)cc1` the activity change, negative = inhibition was inconclusive: -59.3%. With `CCN(C)C(=O)c1coc(N2CCN(Cc3cccc(F)c3)C2=O)n1` the activity change, negative = inhibition was inactive: -10.8%. For `CCC(=O)Nc1nc2c(c(=O)[nH]1)CCCC2`, the activity change, negative = inhibition was inactive: -21.8%. With `COc1cc(OC)cc(C(=O)N[C@H](C(=O)Nc2nc3c(s2)CCCC3)C(C)C)c1` the activity change, negative = inhibition was inconclusive: -42.2%. For `O=[N+]([O-])c1cc(CN2CCN(c3cccc(C(F)(F)F)c3)CC2)c2cccnc2c1O`, the activity change, negative = inhibition was active: -76.3%. With `CCN(CC(=O)Nc1c(F)cccc1F)C(=O)CCc1nc2cc(S(=O)(=O)N(C)C)ccc2n1CC` the activity change, negative = inhibition was inconclusive: -47.9%. For `O=C(CCSCc1cccc(F)c1)NCc1ccccc1`, the activity change, negative = inhibition was inactive: -2.8%. In the case of `Cc1cnc(C(=O)NC2CC(C)(C)Cc3c2cnn3-c2cccc(F)c2)cn1` (configuration not stated), the activity change, negative = inhibition is reported as inactive: -18.8%. In the case of `O=C(O)c1ccc(CN2C(=O)c3ccc(Oc4ccc([N+](=O)[O-])cc4)cc3C2=O)cc1`, the activity change, negative = inhibition is reported as inactive: 25.1%. For `COCCNc1nc(-c2ccccc2)nc2c1oc1ccccc12`, the activity change, negative = inhibition was inconclusive: -54.7%. With `Cc1ccc(N(CC(=O)Nc2ccc3c(c2)OCCO3)S(=O)(=O)c2c(C)noc2C)cc1` the activity change, negative = inhibition was inconclusive: -53.7%. With `COc1cc(CC(=O)Nc2nccs2)cc(OC)c1OC` the activity change, negative = inhibition was inactive: 68%. With `COc1cccc(-c2ncn(CCc3ccccc3OC)c2C(C)C)c1` the activity change, negative = inhibition was active: -101%. For `COc1ccc(NC(=O)c2ccc(Br)c(S(=O)(=O)N3CCOCC3)c2)cc1`, the activity change, negative = inhibition was inconclusive: -43.8%. In the case of `NNC(=O)c1cc(C2CC2)nc2ccc(Br)cc12`, the activity change, negative = inhibition is reported as inconclusive: -54.7%. In the case of `CCCOc1ccc(CNC(=O)Cn2cc3c(n2)-c2c(oc(C(=O)N4CCOCC4)c2C)CC3)cc1`, the activity change, negative = inhibition is reported as inconclusive: -42.7%. With `CCc1ccc(S(=O)(=O)NCc2nc3cccnc3n2Cc2ccccc2Cl)cc1` the activity change, negative = inhibition was inconclusive: -41%. For `Nc1ccc2nc(SCC(=O)c3ccccc3)sc2c1`, the activity change, negative = inhibition was inactive: 27.3%. For `Clc1cccc(Cl)c1CNc1ccc(N2CCCC2)cc1`, the activity change, negative = inhibition was active: -77.5%. For `CCC(C)N1CCN(C(=O)C2CCN(S(=O)(=O)c3c(C)noc3/C=C/c3ccco3)CC2)CC1` (configuration not stated), the activity change, negative = inhibition was inconclusive: -52.1%. In the case of `Brc1ccc2nc(C3CCCCC3)c(Cc3ccccc3)n2c1`, the activity change, negative = inhibition is reported as inactive: 25.1%. With `CCC(C)COC(=O)C(C#N)c1nc2ccccc2nc1N1CCCCC1` (configuration not stated) the activity change, negative = inhibition was inconclusive: -44.4%. For `COc1ccc(-c2nnc(Nc3ccc(OC)c(C(N)=O)c3)c3ccccc23)cc1`, the activity change, negative = inhibition was inactive: -3.42%. In the case of `O=C(CSc1nnc(Nc2ccccc2)s1)NCCN1C(=O)CSC1=O`, the activity change, negative = inhibition is reported as inactive: 20.7%. With `Oc1ccc(C[C@H]2CNC(=S)N2CC2CCCN2C[C@H](Cc2ccc(O)cc2)N2C[C@H](Cc3ccc(O)cc3)N(CC3CCCCC3)C2=S)cc1` (some centres not stated) the activity change, negative = inhibition was active: -92.6%. With `Cc1cccc(NC(=O)CSc2nc3ccccc3nc2N2CCCC2)c1` the activity change, negative = inhibition was inconclusive: -42.5%. With `CCC(CC)C(=O)N1CCc2cc(OC)c(OC)cc2C1COc1ccc(C(=O)OC)cc1` (configuration not stated) the activity change, negative = inhibition was inactive: 3.36%. In the case of `Cc1ccsc1/C=N/n1c(-c2ccccc2)n[nH]c1=S`, the activity change, negative = inhibition is reported as inconclusive: -48.4%. With `O=C(NNC(=O)C1CCC(C(=O)NNC(=O)c2cccs2)CC1)c1cccs1` (configuration not stated) the activity change, negative = inhibition was inactive: -17.6%. With `Cc1ccc(S(=O)(=O)CCC(=O)OCC(=O)Nc2cccc(S(=O)(=O)N3CCCCC3)c2)cc1` the activity change, negative = inhibition was inconclusive: -57.8%. In the case of `CCC(=O)Nc1ccc2nc(SCc3ccccc3)sc2c1`, the activity change, negative = inhibition is reported as inconclusive: -59.4%. For `O=C(CSC1=N/C(=C/c2ccc(Cl)c(Cl)c2)C(=O)N1c1ccccc1F)NC1CC1`, the activity change, negative = inhibition was inconclusive: -59.3%. In the case of `Cc1ccc(S(=O)(=O)N2CCCCC2)cc1C(=O)Nc1ccc(N2CCOCC2)cc1`, the activity change, negative = inhibition is reported as inactive: -33%. With `O=C(CSc1nccn(-c2ccc(Br)cc2)c1=O)NC1CCCC1` the activity change, negative = inhibition was inconclusive: -50.7%. With `Cc1cc(OCC(=O)OCC(=O)c2ccc[nH]2)ccc1Cl` the activity change, negative = inhibition was inactive: -3.29%. With `O=C(NCCC1CCCCN1S(=O)(=O)c1ccc(F)cc1)C(=O)NC1CC1` (configuration not stated) the activity change, negative = inhibition was inactive: -34%. In the case of `COc1cccc(NC(=O)COc2ccc(C(=S)N3CCN(C)CC3)cc2OC)c1`, the activity change, negative = inhibition is reported as inconclusive: -40.8%. For `C/C(=N\NC(=O)c1nn(C)c(C)c1Br)c1ccc(NC(=O)C2CCCC2)cc1`, the activity change, negative = inhibition was inactive: 94.2%. In the case of `COc1cccc(-n2c(-c3ccco3)nc3c(cnn3-c3ccc(Cl)cc3)c2=O)c1`, the activity change, negative = inhibition is reported as active: -66.7%. In the case of `CC1(C)C=C2[C@H]3CC[C@@H]4[C@@]5(C)CCC(=O)C(C)(C)[C@@H]5CC[C@@]4(C)[C@]3(C)CC[C@@]2(C(=O)O)CC1`, the activity change, negative = inhibition is reported as inconclusive: -45.5%. For `CC(=O)Nc1ccc(S(=O)(=O)N2CCC(n3cnc4cc(F)ccc43)CC2)cc1`, the activity change, negative = inhibition was inconclusive: -41.2%. For `O=C(NCc1ccco1)/C(=C\c1cccc([N+](=O)[O-])c1)NC(=O)c1ccco1`, the activity change, negative = inhibition was active: -72%. For `COc1ccc(-c2nnc(OC)c3ccccc23)cc1`, the activity change, negative = inhibition was inconclusive: -48.4%. With `CCOc1ccc(CNCc2c(C(=O)O)n(Cc3ccc(OC)cc3)c3ccccc23)cc1` the activity change, negative = inhibition was inconclusive: -45.7%. With `Cc1ccc(SCc2c(C(=O)N/N=C/c3ccco3)nnn2-c2nonc2N)cc1` the activity change, negative = inhibition was inconclusive: -47.4%. With `COc1ccc(OC)c(C(=O)N2CCC(C(=O)c3ccc(F)cc3)CC2)c1` the activity change, negative = inhibition was inactive: 24.3%. For `CCC1CN(S(=O)(=O)c2ccc3c(c2)NC(=O)CC(=O)N3)c2cc(Cl)ccc2O1` (configuration not stated), the activity change, negative = inhibition was inconclusive: 0%. For `CS(=O)(=O)N(Cc1ccc(C(=O)N2CCc3ccccc3C2)cc1)c1ccccc1`, the activity change, negative = inhibition was inconclusive: -45.1%. For `Cc1ccc(N2C(=O)CS(=O)(=O)CC2=O)cc1`, the activity change, negative = inhibition was inconclusive: -45.1%. For `O=C(CSc1nnc(NC(=O)c2ccco2)s1)NCc1ccc2c(c1)OCO2`, the activity change, negative = inhibition was inactive: -24%. In the case of `C[C@@H]1O[C@@H](O[C@H]2[C@H](O)[C@@H](O)[C@H](Oc3c(-c4ccc(O)cc4)oc4cc(O)cc(O)c4c3=O)O[C@@H]2CO)[C@H](O)[C@H](O)[C@H]1O`, the activity change, negative = inhibition is reported as inconclusive: -40.8%. For `O=C1c2cccc3cccc(c23)C(=O)C1(O)O`, the activity change, negative = inhibition was active: -68.9%.
